Patent EP1103603A2

Target: cytochrome c oxidase core subunit II (CO II) of Gluconobacter oxydans DSM 4025 (Gluconobacter oxydans DSM 4025)
Assay: co-purification from solubilized membranes (DEAE-Toyopearl, hydroxylapatite); single band on native-PAGE, two bands (CO I, CO II) on SDS-PAGE

binding: binds
B1: cytochrome c oxidase core subunit I (CO I) of Gluconobacter oxydans DSM 4025 (enzyme)
chain: MADAAIHGHDHHEKQGFFTRWFMSTNHKDIGLLYLVAAGVVGFISVLFTVYMRLELMDPGVQYMCLEGARLIADASQTCTANGHLWNVMVTYHGILMMFFVGIPALFGGFGNYLMPLQIGAPDMAFPRMNNLSFWLFIAGTAMGVASLFAPGGDGQLGSGVGWVLYPPLSTREAGYSMDLAIFAVHLSGASSIMGAINMITTFLNMRAPGMTLHKVPLFSWSIFITAWLILLALPVLAGAITMLLTDRNFGTTFFNPAGGGDPILYQHILWFFGHPEVYIIILPGFGIISHVVSTFSKKPVFGYLPMVYAMVAIGVLGFVVWAHHMYTVGMSLTQQSYFMLATMVIAVPTGIKIFSWIATMWGGSVEFKSPMLWAFGFMFLFTVGGVTGIVLAQAGLDRAYHDTYYVVAHFHYVMSLGAIFAIFAGIYFYMPKFSGRAFPEWAAKLHFWTFFIGANVTFFPQHFLGRQGMPRRYIDYPEAFALWNKVSSYGAFLAFASFLFFIVIFVYTLVAGRRETRPNPWGEFADTLEWTLPSPPPAHTFETLPKRSDWDKHPSH
modifications: N-terminal alpha-amino residue blocked by unidentified modification

Results are given in words; binding and its absence hold for the method and conditions named. In cells and extracts the contact can be indirect. A result given as binding can be weak or reduced; the word gives no strength. Sequences can lack the tags named with a protein.
